Reference: PubChem BioAssay AID1224829 (NIAID, 2016)

Test: 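Secondary check of hits that alter LPS-induced p65 translocation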 (follow-up of hits)
System: mouse RAW264.7 G9 macrophage reporter cells
Reagent: single siRNA against mouse genes, 100 nM
Duration: 2 days of siRNA knock-down, then 40 min of LPS before fixing
Conditions: LPS (Salmonella minnesota R595) at 10 ng/ml
Detection: 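High-content images after 40 min LPS exposure; GFP-p65 nucleus to surrounding ring signal ratio, normalised to plate median and non-targeting control wells, expressed as z-score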
Direction: p65 translocation z-score: higher = more nuclear NF-kappaB p65 after LPS
Active means: 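Active means the replicate-mean z-score lies beyond plus or minus 2, in either direction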
Meaning of the calls: active = changed p65 translocation (either direction); inactive = no clear change
In all, the deposit lists about 3,800 reagents; shown is a random part of them. 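Calls cover raised and lowered translocation; gene median uses one vendor's three siRNAs; qiagen siRNAs acted more weakly than ambion siRNAs.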 A number with no mark means an inactive call. Reagents against one gene are numbered here. Not all columns of the deposit are shown.

gene | reagent | siRNA vendor or control pool | p65 translocation z-score, replicate mean
Elf3 (GeneID 13710) | 1 | ambion single siRNA | -1.5
Elf3 (GeneID 13710) | 2 | ambion single siRNA | -5.94 (active)
Elf3 (GeneID 13710) | 3 | ambion single siRNA | 0.0597
Elf3 (GeneID 13710) | 4 | qiagen single siRNA | 2.52 (active)
Elf3 (GeneID 13710) | 5 | qiagen single siRNA | 0.758
Elf3 (GeneID 13710) | 6 | qiagen single siRNA | -1.61
Rxrb (GeneID 20182) | 1 | ambion single siRNA | -1.69
Rxrb (GeneID 20182) | 2 | ambion single siRNA | -1.74
Rxrb (GeneID 20182) | 3 | ambion single siRNA | 0.201
Rxrb (GeneID 20182) | 4 | qiagen single siRNA | -0.734
Rxrb (GeneID 20182) | 5 | qiagen single siRNA | -2.46 (active)
Rxrb (GeneID 20182) | 6 | qiagen single siRNA | 0.287
Arrdc4 (GeneID 66412) | 1 | ambion single siRNA | 2.2 (active)
Arrdc4 (GeneID 66412) | 2 | ambion single siRNA | -1.35
Arrdc4 (GeneID 66412) | 3 | ambion single siRNA | -2.48 (active)
Arrdc4 (GeneID 66412) | 4 | qiagen single siRNA | 1.2
Arrdc4 (GeneID 66412) | 5 | qiagen single siRNA | -2.15 (active)
Arrdc4 (GeneID 66412) | 6 | qiagen single siRNA | -0.436
Fam168b (GeneID 214469) | 1 | ambion single siRNA | -3.11 (active)
Fam168b (GeneID 214469) | 2 | ambion single siRNA | -0.278
Fam168b (GeneID 214469) | 3 | ambion single siRNA | -4.14 (active)
Bach2 (GeneID 12014) | 1 | ambion single siRNA | 0.0145
Bach2 (GeneID 12014) | 2 | ambion single siRNA | -1.07
Bach2 (GeneID 12014) | 3 | ambion single siRNA | -2.07 (active)
Bach2 (GeneID 12014) | 4 | qiagen single siRNA | -0.368
Bach2 (GeneID 12014) | 5 | qiagen single siRNA | 1.4
Bach2 (GeneID 12014) | 6 | qiagen single siRNA | -2.96 (active)
Gdf1 (GeneID 14559) | 1 | qiagen single siRNA | -0.217
Gdf1 (GeneID 14559) | 2 | qiagen single siRNA | -1.3
Gdf1 (GeneID 14559) | 3 | qiagen single siRNA | -4.8 (active)
Washc2 (GeneID 28006) | 1 | ambion single siRNA | -3.64 (active)
Washc2 (GeneID 28006) | 2 | ambion single siRNA | -5.69 (active)
Washc2 (GeneID 28006) | 3 | ambion single siRNA | -4.59 (active)
Washc2 (GeneID 28006) | 4 | qiagen single siRNA | 1.96
Washc2 (GeneID 28006) | 5 | qiagen single siRNA | 0.369
Washc2 (GeneID 28006) | 6 | qiagen single siRNA | -1.27

A portion of the results above, for reference:
gene | reagent | siRNA vendor or control pool | p65 translocation z-score, replicate mean
Elf3 (GeneID 13710) | 5 | qiagen single siRNA | 0.758
Elf3 (GeneID 13710) | 6 | qiagen single siRNA | -1.61
Rxrb (GeneID 20182) | 1 | ambion single siRNA | -1.69
Rxrb (GeneID 20182) | 2 | ambion single siRNA | -1.74
Rxrb (GeneID 20182) | 3 | ambion single siRNA | 0.201
Rxrb (GeneID 20182) | 4 | qiagen single siRNA | -0.734
